Source: patent publication US20130317096A1, “SYNERGISTIC INTERACTION OF AT LEAST ONE VITAMIN E COMPONENT AND TYROSINASE INHIBITORS FOR DERMATOLOGICAL APPLICATIONS” (Davos Life Science Pte Ltd, priority 2010, published 2013)
Some entries share one result that the patent states for a list of compounds. For some of these results: At least one structure is not confirmed: it was looked up by name or label, or the drawing left a doubt.

Key:
[1] = test system: tyrosinase; experiment: Western blot of tyrosinase protein expression in B16 melanoma cells; type: cell-based, mouse
Procedure: Carcinogenesis, 2006, 27, 2180-9. Briefly, cell lysates were prepared by suspending cell pellets in lysis buffer (50 mmol/l Tris-HCl [pH 8.0], 150 mmol/l NaCl, 1% NP40, 0.5% deoxycholate, 0.1% SDS, […], 1 μg/ml leupeptin, and 1 mmol/l phenylmethylsulfonyl fluoride). The protein concentration was measured using the DC Protein Assay kit (Bio-Rad, Hercules, Calif., USA). An equal amount of protein (30 μg) was loaded onto a 10% SDS polyacrylamide gel for electrophoresis, then transferred onto a polyvinylidene difluoride membrane (Amersham, Piscataway, N.J., USA). The membrane was then incubated with primary antibodies for 1 hr at room temperature against tyrosinase, Id1, and beta-actin (Santa Cruz Biotechnology, Inc., Santa Cruz, Calif., USA). After incubation with appropriate secondary antibodies, signals were visualized by an ECL Western blotting system (Amersham). The expression of β-actin was assessed as an internal loading control for total cell lysate.

[2] = target: T1, tyrosinase (Mus musculus, UniProt P11344); experiment: Tyrosinase activity of treated B16 melanoma cells (L-DOPA, dopachrome formation); type: cell-based
T1 construct: suppression of tyrosinase protein expression in B16 melanoma cells; endogenous in cells; host or cells: B16 melanoma cells
T1 sequence (P11344 19-533): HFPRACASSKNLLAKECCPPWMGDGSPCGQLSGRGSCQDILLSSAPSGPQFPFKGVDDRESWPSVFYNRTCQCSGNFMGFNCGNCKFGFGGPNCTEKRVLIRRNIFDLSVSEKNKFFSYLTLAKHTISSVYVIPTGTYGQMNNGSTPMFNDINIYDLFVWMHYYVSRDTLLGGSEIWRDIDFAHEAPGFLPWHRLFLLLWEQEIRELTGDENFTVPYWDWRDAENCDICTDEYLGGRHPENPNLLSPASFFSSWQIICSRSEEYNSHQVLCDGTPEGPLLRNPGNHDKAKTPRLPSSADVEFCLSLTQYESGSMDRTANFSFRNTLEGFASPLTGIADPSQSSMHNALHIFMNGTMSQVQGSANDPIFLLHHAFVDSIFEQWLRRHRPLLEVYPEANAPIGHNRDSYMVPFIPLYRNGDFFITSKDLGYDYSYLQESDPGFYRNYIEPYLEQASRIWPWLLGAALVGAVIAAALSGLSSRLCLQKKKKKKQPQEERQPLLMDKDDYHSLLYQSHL
Procedure: At different time points, cells were harvested using trysin-EDTA and the cell pellets were washed once with phosphate-buffered saline (PBS). A sample amount from each compound treatment group was divided into two equal parts. These cell pellets were then stored at −80° C. prior to the measurement of the tyrosinase activity and melanin content.
Harvested cell pellets were homogenized in RIPA buffer (10 mM Tris-HCl [pH 7.5], 1% NP-40, 0.1% sodium deoxycholate, 0.1% SDS, 150 mM sodium chloride, and 1 mM EDTA) with protease inhibitors and placed on ice for 30 min. The supernatants were collected after centrifuging the samples at 15,000 g at 4° C. for 30 min. For every 100 μl of supernatant, 200 μl of 0.3% L-DOPA (Sigma-Aldrich) was added. All samples, including a blank control of RIPA buffer and 0.3% L-DOPA, were incubated at 37° C. for 20 min. The dopachrome formation from each sample was then measured at 475 nm. The absorbance percentage values of the treated groups in comparison to untreated controls were calculated against per μg of the total protein content, which was determined using the DC protein assay (Bio-Rad, Hercules, Calif., USA).

| Structure (SMILES) | dose leading to significant inhibition of tyrosinase protein expression [1] [%] | duration of inhibition of tyrosinase activity after treatment ([2]; 20 μM) | potency of inhibition of tyrosinase activity versus kojic acid and sodium lactate ([2]; 20 μM versus 3.52 mM kojic acid and 4.46 mM sodium lactate) | tyrosinase activity relative to controls ([2]; 20 μM, normalized by cell number) [%] |
| --- | --- | --- | --- | --- |
| CC(O)C(=O)[O-].[Na+] (stereo not shown) [sodium lactate, reference compound] | ≥ 0.05 | – | – | – |
| CC(C)=CCC/C(C)=C/CC/C(C)=C/CCC1(C)CCc2cc(O)c(C)c(C)c2O1 (stereo not shown) [γ-tocotrienol, 7,8-dimethyltocotrienol] | – | up to 15 days | at least 150 fold | < 45 |
